Laboratory results as given in patent US5059438A, “Compositions and methods for inhibiting browning in foods using resorcinol derivatives” (Enzytech, Inc., priority 1990, dated 1991).
“Also recorded” adds a separate entry of the source. At least one structure is not confirmed: it was looked up by name or label, or the drawing left a doubt.

Legend:
[1] = tested on: brown shrimp melanosis; test: Effect of Formula V compound on fresh brown shrimp melanosis; design: species or system Texas brown shrimp
[2] = tested on: PPO (mushroom); test: Inhibition of PPO by various resorcinol derivatives (linear spectrophotometric assay); format: biochemical; details: 0.133 mM L-DOPA, pH 6.5, 25° C., 475 nm, read-out: I50 (apparent inhibition constant)
Method: In order to determine the effect of various resorcinol compounds on the inhibition of PPO (mushroom), a linear spectrophotmetric assay system similar to that described in Example 1 was used. The assay mixture consisted of:
5 mM sodium phosphate, pH 6.5;
0.133 mM L-dihydroxyphenylalanine (L-DOPA); PPO (mushroom); and
+/- varied concentrations of the compound to be tested
The rate of the reaction was monitored by measuring the change in absorbance per minute at 475 nm at 25° C.
I50 represents the concentration of inhibitor necessary to obtain fifty (50%) percent inhibition of the enzyme.

[3] = tested on: McIntosh apples, browning; test: Inhibition of browning in apples by Formula V and YM5 eluate; details: Formula V at 20 mM vs YM5 eluate and crude ficin
Method: Two fresh and unbruised whole McIntosh apples, held at ambient temperature,were sliced with a stainless steel paring knife into quarters, cored, then cut into 1/4-inch slices. A volume of 0.8 mL of each of the treatment solutions listed in Table 5 at ambient temperature was applied onto the top exposed surface of freshly cut white slices, triplicate samples per treatment. […] Following application, the slices stood at ambient temperature, exposed to air and light, for periodic visual observation of relative rate and extent of browning, from 15 minutes to 4 hours.

[4] = tested on: fresh pink shrimp (Penaeus duorarum) melanosis; test: Effect of Formula V compound on fresh pink shrimp melanosis
Method: Pink shrimp (Penaeus duorarum) were treated and evaluated as described in Example 8 except that the experiment was carried out on a shrimp boat with freshly caught shrimp. The shrimp were not frozen prior to treatment with various concentrations of the compound of Formula V. All solutions were prepared in sea water.
Fresh pink shrimp were treated and evaluated as described in Example 12. The shrimp treated with 0.025% of the compound of Formula V were stored directly or following a sea water rinse, post-treatment.
Fresh pink shrimp were treated and evaluated as described in Example 12. The shrimp were dipped in a 0.01% solution of the compound of Formula V made up in either sea or fresh water.
Fresh pink shrimp were treated and evaluated as described in Example 12. In this example, different one pound batches of shrimp were dipped into the same one liter solution of 0.01% of the Formula V compound for one minute each. A total of eight dips were performed.

[5] = tested on: PPO isolated from Taiwanese Black Tiger Shrimp; test: Effect of Formula V compound on PPO isolated from tiger shrimp; format: biochemical, Penaeus monodon
[6] = tested on: pink shrimp (Penaeus duorarum) melanosis; test: Effect of YM5 eluant and Formula V compound on pink shrimp melanosis

SMILES | inhibiting melanosis development in brown shrimp vs pink shrimp (FIG. 13) [1] | IC50 [2] | inhibition of browning of apples, conclusion [3] | inhibition of melanosis after repeated dips in the same solution (FIG. 9) ([4]; 0.01%, eight dips of one pound batches in one liter) | prevention of fresh pink shrimp melanosis (FIG. 6) ([4]; shrimp not frozen, solutions in sea water) | Reaction Rate ([5]; 1 mM inhibitor, L-DOPA, 35° C., control 1.83 × 10^-3) | Activity ([5]; 1 mM inhibitor, control = 100) | inhibition of PPO activity ([5]; 1 mM, tiger shrimp PPO) | reducing melanosis vs sodium bisulfite (FIG. 4) ([6]; 0.005% by weight, sodium bisulfite 1.25%) | reducing melanosis vs bisulfite (FIG. 3) ([6]; 0.1% by weight, sodium bisulfite 1.25%) | inhibiting browning of shrimp on a weight basis vs sodium bisulfite ([6]; about 0.001% to 0.1% by weight (FIG. 4))
NCCCCNC(=O)CCc1ccc(O)cc1O [Formula V, 2,4-dihydroxyphenylpropionyldiaminobutane] | as effective in inhibiting melanosis development in brown shrimp as in pink shrimp | 5 µM | inhibited browning of apples more effectively than the YM5 eluate and crude ficin | still an effective melanosis inhibitor even after eight dips | effective in the prevention of fresh pink shrimp melanosis | 1.5 × 10^-4 Δ475 nm/min | 8 | substantial inhibition of PPO activity | as effective as sodium bisulfite in reducing melanosis; also recorded: as effective in inhibiting shrimp melanosis as a solution of 1.25% by weight of sodium bisulfite | as effective as bisulfite in reducing melanosis | more effective on a weight basis than sodium bisulfite
O=C(O)CCc1ccc(O)cc1O [Formula IV, 2,4-dihydroxyphenylpropionic acid] |  | 25 µM |  |  |  |  |  |  |  |  | 
